# Measurements as given in PMC12040169 (PLOS Biology, 2025).
# The list shows a part of the results.
# Tested on: T1, CTL2-GFP (C. trachomatis L2/434/Bu, GFP-expressing)
# T1 construct: L2/434/Bu, GFP-expressing
# Design: species or system HeLa; Intracellular C. trachomatis growth in HeLa cells, bulk GFP fluorescence relative to DMSO
# Settings: bulk GFP, single well; 28.5 h, 10 µM; inhibitor
row,Structure (SMILES),% of control remaining [%]
1,COc1ccc(C(CC(=O)O)C(=O)O)cc1OC (stereo not drawn) [CBK261943],115.39
2,COc1ccc([N+](=O)[O-])cc1NC(=O)C1(c2ccc(OC)c(OC)c2)CCOCC1 [CBK266243],227.836
3,O=C(NC[C@H]1CC[C@H](c2nnc(-c3ccsc3)o2)CC1)C1CC1 [CBK283361],123.231
4,CSCc1nnc(SCc2ccccc2Oc2ccccc2)o1 [CBK296743],133.09
5,CCN(CC)C(=O)COc1ccc(NC(=O)Nc2cc(C)on2)cc1Cl [CBK305734],87.1774
6,COC(=O)c1c(COC(=O)c2cnc(Cl)c(Cl)c2)nc2ccccc2c1C [CBK296940],132.82
7,Cc1nn(C)cc1C(=O)N1CCCCC1c1nc2ccccc2[nH]1 (stereo not drawn) [CBK283779],122.495
8,CC(c1ccc(F)c(F)c1)N(C)C(=O)Cn1[nH]c(=O)ccc1=O (stereo not drawn) [CBK305810],170.563
9,COC12CCCC(C(=O)O)(CCC1)C2 [CBK038238],108.678
10,O=C(NCc1c(Cl)cccc1Cl)N(Cc1cccnc1)Cc1ccc2c(c1)OCO2 [CBK159450],54.3459
11,Nc1nc(Cl)cc(Sc2ccc3ccccc3c2)n1 [CBK021630],156.425
12,Cc1ccc(NC(=O)CN2CCN(Cc3ccc4c(c3)OCO4)CC2)cc1 [CBK074403],100
13,COc1ccc(CCNC(=O)c2cc3c([nH]c2=O)CCC3)cc1C [CBK281627],120.751
14,CCCNc1cncc(-c2cccnc2)n1 [CBK037921],116.546
15,O=C(c1cc[nH]n1)N1CCCC(c2cc3ccccc3cn2)C1 (stereo not drawn) [CBK284921],131.116
16,CCCC(C(=O)O)C(C)CC(=O)Nc1ccccc1Cl (stereo not drawn) [CBK286927],99.036
17,CN1CCC(N2CC[C@@H]3[C@H]2C(=O)NC[C@H](CCC(=O)NCc2ccc(F)cc2)N3C)CC1 [CBK289022],151.558
18,COc1cc(-c2nccnc2NCCc2ccccn2)cc(OC)c1OC [CBK037307],144.459
19,Oc1cccc(OCCOc2nccnc2N2CCCC2)c1 [CBK115756],138.263
20,Cc1ccc(N(Cc2ccccc2OC(=O)c2cccnc2)C2=NS(=O)(=O)c3ccccc32)cc1 [CBK265760],98.924
21,CCNc1cncc(-c2ccc(F)c(Cl)c2)n1 [CBK065322],93.9006
22,COc1ccc(NC(=S)NC(=O)c2cc3c(C)nn(-c4ccccc4)c3s2)cc1[N+](=O)[O-] [CBK265324],131.804
23,Cc1ccc(C)n1-c1cccc(C(=O)N2CCn3cnnc3C2)c1 [CBK283646],123.218
24,COc1ccc(C2=NN(c3ccccc3)C(c3ccc(OC)c(OC)c3C(=O)O)C2)cc1 (stereo not drawn) [CBK262679],145.493
25,O=C(OCCc1ccncc1)N1Cc2ccccc2C1 [CBK200141],112.66
26,CN1CCN(c2cccc(-c3ccccc3Oc3ccccc3)n2)CC1 [CBK037598],187.536

# No new results follow: 2 of the compounds above.
row,Structure (SMILES),% of control remaining [%]
20,Cc1ccc(N(Cc2ccccc2OC(=O)c2cccnc2)C2=NS(=O)(=O)c3ccccc32)cc1 [CBK265760],98.924
21,CCNc1cncc(-c2ccc(F)c(Cl)c2)n1 [CBK065322],93.9006

# More entries follow:

row,Structure (SMILES),% of control remaining [%]
1,CC(C)(C)c1ccc(C(=O)NCCNC(=O)c2nonc2N)cc1 [CBK268869],127.635
2,Cc1c(C(=O)NCCN2CCCC(C(N)=O)C2)[nH]c2c(F)cccc12 (stereo not drawn) [CBK306877],128.191
3,N#CCCN1CCCC2(C1)NCCc1c2[nH]c2ccccc12 (stereo not drawn) [CBK040031],113.648
4,COc1ccc([C@@]23CCN(C(=O)c4ccc(Cl)c(Cl)c4)C[C@@H]2CN(C)C3)cc1OC [CBK074308T],101.383
5,COc1cccc(CN2CCCC3(C2)c2[nH]c4ccccc4c2CCN3C(C)=O)c1 (stereo not drawn) [CBK039634],123.079
6,CC(C)C(NC(=O)CSc1n[nH]c(=O)n1Cc1ccccc1)c1ccc2c(c1)OCCCO2 (stereo not drawn) [CBK297875],126.405
7,O=C1NCCN1CCOc1nccnc1/C=C/c1ccccc1 [CBK106879],122.477
8,CC(O)CN(Cc1ccc(-n2cnc3ccccc32)cc1)Cc1ccc2c(c1)OCO2 (stereo not drawn) [CBK286475],76.2757
9,O=C(O)CCCN1C(=O)/C(=C/c2ccccc2[N+](=O)[O-])SC1=S [CBK262801],123.82
10,Nc1ncc(-c2ccc(C(F)(F)F)cc2)nc1-c1ccc(C(=O)N2CCOCC2)cc1 [CBK090524],126.8
11,c1csc(-c2cn3ccnc3c(NCC3CC3)n2)c1 [CBK066754],173.578
12,O=C(c1ccc(SCc2cccnc2)c([N+](=O)[O-])c1)N1CCCCC1 [CBK294452],91.3198
13,O=C(CN1C(=O)c2ccccc2C1=O)Nc1ccc(S(=O)(=O)N2CCCCCC2)cc1 [CBK266693],84.9549
14,c1ccc(CNc2cccc(N3CCNCC3)n2)cc1 [CBK003176T],139.284
15,CCS(=O)(=O)N1CC2C3c4ccccc4C(c4ccccc43)C2C1 (stereo not drawn) [CBK282328],107.573
16,CC(=O)C1=C(C)N2C(=Nc3ccccc3C2(C)C)S1 [CBK010180C],119.581
17,CC(C)(C)c1ccc(C(=O)CSCC(=O)Nc2ccc3ccccc3c2)cc1 [CBK268394],123.864
18,CC(C)(N)C(=O)N1CC(C(=O)NCCN(Cc2ccccc2)S(C)(=O)=O)C(c2ccccc2)C1 (stereo not drawn) [CBK014706T],100.552
19,CCOc1ccc(NC(=O)c2c[nH]c(=O)n(-c3ccc(F)cc3)c2=O)cc1 [CBK287553],133.151
20,Cc1ccc2ccccc2c1CN(/N=N/c1nonc1C)c1nonc1C [CBK262412],108.278
21,CCOC(=O)c1c(-c2ccc(-c3ccccc3)cc2)csc1NC(=O)c1ccccc1C(=O)O [CBK296096],80.983
22,CCCc1nc(C(=O)NC2CC(=O)N(CCc3ccc(F)cc3)C2)cs1 (stereo not drawn) [CBK306548],107.651
23,CC(=O)c1cc(C(=O)N2CCC(O)(c3ccccc3C)CC2)cs1 [CBK282532],107.705
24,CN(C)c1ccccc1-c1cc(Nc2ccc(C(C)(C)C)cc2)ncn1 [CBK090872],166.485
25,CC(=O)N[C@H]1CC[C@]2(C)CCC([C@H](C)C(=O)NC3CCCC3)[C@H](O)[C@H]2[C@@H]1C (stereo partly drawn) [CBK289436],154.609
26,CCn1cnc2c1CC/C(=N\O)C2 [CBK010044],144.81

row,Structure (SMILES),% of control remaining [%]
1,CCOC(=O)c1c(NC(=O)c2cc(-c3ccc(C)c(C)c3)nc3ccccc23)sc2c1CCC(C)C2 (stereo not drawn) [CBK262627],88.1542
2,CC(=O)N1CCC2(C/C=C/C[C@H]3CN(C(=O)Cc4cccc(F)c4)CC[C@H]3NC(=O)CNC2=O)CC1 [CBK292103],126.105
3,CC(C)CCNC(=O)N1CCN(Cc2ccccc2)CC1 [CBK155657],117.864
4,COCCOc1nnc(C)c2ccccc12 [CBK019388],100.836
5,O=C1Nc2ccc(Br)cc2/C1=C1/SC(=S)N(C(Cc2ccccc2)C(=O)O)C1=O (stereo not drawn) [CBK263521],121.189
6,CNC(=S)N(CCS(=O)(=O)c1ccc(Cl)cc1)Cc1cccs1 [CBK006431],99.3154
7,COc1cccc(NC(=O)c2cc(-c3ccc(C(=O)N4CCOCC4)cc3)cnc2N)c1 [CBK160203],111.411
8,COc1cccc([C@H]2CN(C(=O)c3ccccc3)[C@@H]3CCN(Cc4ccccc4F)C[C@H]23)c1 [CBK285608],85.5855
9,O=C(CCCOc1ccccc1)Nc1ccc(N2CCNCC2)nc1 [CBK028270T],108.857
10,Cn1cnnc1SCc1nc(N)nc(Nc2ccccc2)n1 [CBK018022],111.678
11,COc1ccc(C2=NNC(=O)c3cc4sccc4n3C2)cc1 [CBK284205],91.7356
12,Cc1sc2ncn(CC(=O)NC3CCOc4ccccc43)c(=O)c2c1C (stereo not drawn) [CBK304562],110.26
13,C[Si]1(C)O[Si](C)(C)O[Si](C)(CC[Si](C)(C)c2ccccc2)O[Si](C)(C)O1 [CBK260998],100
14,CN(c1cccc(C#N)c1)C1CCN(c2nccn(C)c2=O)C1 (stereo not drawn) [CBK304718],143.808
15,OC(COCc1ccc2c(c1)OCO2)CN1CCN(Cc2ccccc2)CC1 (stereo not drawn) [CBK278249C],121.72
16,COc1ccc(Nc2nc(-c3ccc(Cl)cc3)cn3ccnc23)cn1 [CBK066254],84.163
17,CCOC(=O)C1CCN(c2cccc(F)c2C#N)CC1 [CBK304558],124.096
18,c1csc(CNCCCN2CCOCC2)c1 [CBK278305C],147.445
19,O=C(NC1CC2CCC(C1)N2Cc1ccccc1)c1ccc(Cl)cc1 (stereo not drawn) [CBK120192],140.553
20,Cc1ccc(-c2[nH]ncc2C(=O)c2ccccc2C)c(O)c1 [CBK287929],149.221
21,CC(C)OC(=O)COc1ccc2c(=O)c(Oc3ccccc3Br)coc2c1 [CBK264226],110.403
22,CC(C)c1ccc(/C=C/C(=O)NCc2cccs2)cc1 [CBK149587],110.942
23,COc1ccc(-c2n[nH]c(=S)n2CCC(=O)NCc2ccc(CN3CCCCC3)cc2)cc1 [CBK297918],134.166
24,OCCN(CCO)Cc1c(Cl)cccc1Cl [CBK261887],124.914
25,Cc1ccc(OCC(=O)Nc2ncc(C(F)(F)F)cc2Cl)c(Br)c1 [CBK266426],173.276
26,COc1ccc2sc(C)[n+](CCC(=O)O)c2c1 [CBK260899B],115.29

# In the list so far, eleven have an NH in an aromatic ring.
row,Structure (SMILES),% of control remaining [%]
7,Cc1nn(C)cc1C(=O)N1CCCCC1c1nc2ccccc2[nH]1 (stereo not drawn) [CBK283779],122.495
8,CC(c1ccc(F)c(F)c1)N(C)C(=O)Cn1[nH]c(=O)ccc1=O (stereo not drawn) [CBK305810],170.563
13,COc1ccc(CCNC(=O)c2cc3c([nH]c2=O)CCC3)cc1C [CBK281627],120.751
15,O=C(c1cc[nH]n1)N1CCCC(c2cc3ccccc3cn2)C1 (stereo not drawn) [CBK284921],131.116
2,Cc1c(C(=O)NCCN2CCCC(C(N)=O)C2)[nH]c2c(F)cccc12 (stereo not drawn) [CBK306877],128.191
3,N#CCCN1CCCC2(C1)NCCc1c2[nH]c2ccccc12 (stereo not drawn) [CBK040031],113.648
5,COc1cccc(CN2CCCC3(C2)c2[nH]c4ccccc4c2CCN3C(C)=O)c1 (stereo not drawn) [CBK039634],123.079
6,CC(C)C(NC(=O)CSc1n[nH]c(=O)n1Cc1ccccc1)c1ccc2c(c1)OCCCO2 (stereo not drawn) [CBK297875],126.405
19,CCOc1ccc(NC(=O)c2c[nH]c(=O)n(-c3ccc(F)cc3)c2=O)cc1 [CBK287553],133.151
20,Cc1ccc(-c2[nH]ncc2C(=O)c2ccccc2C)c(O)c1 [CBK287929],149.221
23,COc1ccc(-c2n[nH]c(=S)n2CCC(=O)NCc2ccc(CN3CCCCC3)cc2)cc1 [CBK297918],134.166
